According to the supplement of paper PMC12819154, “High-throughput peptide-centric local stability assay extends protein–ligand identification to membrane proteins, tissues and bacteria” (Nature Structural & Molecular Biology, 2025):
The other results are listed elsewhere or left out. Most values lie at the level of the controls, where differences are scatter.

Protein sequences, listed by entry. Tags and fused reporters are not part of them. Lines headed by an entry give the natural chain unless they say otherwise; changes in a name come on top.
UniProt O94892: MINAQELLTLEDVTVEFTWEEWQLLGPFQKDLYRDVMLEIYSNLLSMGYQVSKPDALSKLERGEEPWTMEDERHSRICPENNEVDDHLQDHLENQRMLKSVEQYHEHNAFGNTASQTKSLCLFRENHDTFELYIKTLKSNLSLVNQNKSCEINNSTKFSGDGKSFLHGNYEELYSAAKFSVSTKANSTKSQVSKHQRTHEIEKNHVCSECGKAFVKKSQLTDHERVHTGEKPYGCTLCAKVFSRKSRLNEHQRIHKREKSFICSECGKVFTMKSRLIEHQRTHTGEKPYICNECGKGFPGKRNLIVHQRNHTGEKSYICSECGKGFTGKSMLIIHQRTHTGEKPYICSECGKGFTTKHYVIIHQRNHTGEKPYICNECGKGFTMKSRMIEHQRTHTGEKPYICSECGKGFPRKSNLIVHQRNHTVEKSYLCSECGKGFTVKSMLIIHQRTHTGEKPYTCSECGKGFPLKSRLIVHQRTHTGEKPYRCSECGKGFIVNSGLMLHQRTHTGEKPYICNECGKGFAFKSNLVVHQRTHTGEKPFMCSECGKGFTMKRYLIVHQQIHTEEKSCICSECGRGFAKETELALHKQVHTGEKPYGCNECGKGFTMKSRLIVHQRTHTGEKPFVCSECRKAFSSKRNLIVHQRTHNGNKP
UniProt O95685: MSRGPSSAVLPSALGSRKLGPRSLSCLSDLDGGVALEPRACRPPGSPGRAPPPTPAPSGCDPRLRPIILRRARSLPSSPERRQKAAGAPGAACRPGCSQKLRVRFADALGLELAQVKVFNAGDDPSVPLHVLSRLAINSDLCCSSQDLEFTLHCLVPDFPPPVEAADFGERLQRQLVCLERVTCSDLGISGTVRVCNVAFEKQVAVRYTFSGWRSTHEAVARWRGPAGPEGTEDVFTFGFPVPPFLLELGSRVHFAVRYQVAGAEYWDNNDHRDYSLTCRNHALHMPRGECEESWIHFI
UniProt O95670: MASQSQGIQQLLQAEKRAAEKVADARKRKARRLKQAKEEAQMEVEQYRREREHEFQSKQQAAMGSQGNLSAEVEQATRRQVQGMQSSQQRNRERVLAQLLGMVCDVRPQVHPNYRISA
UniProt O95861: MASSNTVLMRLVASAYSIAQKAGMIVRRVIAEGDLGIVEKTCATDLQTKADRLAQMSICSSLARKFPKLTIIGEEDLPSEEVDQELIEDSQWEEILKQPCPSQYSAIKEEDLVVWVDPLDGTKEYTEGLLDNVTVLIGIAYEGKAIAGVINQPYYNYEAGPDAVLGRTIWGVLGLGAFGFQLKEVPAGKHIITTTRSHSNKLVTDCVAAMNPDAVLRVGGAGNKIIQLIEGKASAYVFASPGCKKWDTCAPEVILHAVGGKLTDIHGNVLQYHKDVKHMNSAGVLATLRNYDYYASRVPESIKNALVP
UniProt O95456: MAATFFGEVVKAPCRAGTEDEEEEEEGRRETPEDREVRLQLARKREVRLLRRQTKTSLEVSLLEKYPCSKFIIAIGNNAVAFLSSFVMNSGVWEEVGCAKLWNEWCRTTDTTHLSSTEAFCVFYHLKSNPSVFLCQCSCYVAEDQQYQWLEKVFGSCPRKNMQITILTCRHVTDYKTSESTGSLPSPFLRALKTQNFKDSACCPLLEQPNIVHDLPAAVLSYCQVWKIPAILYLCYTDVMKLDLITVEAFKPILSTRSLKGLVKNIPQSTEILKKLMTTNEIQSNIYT
UniProt O94864: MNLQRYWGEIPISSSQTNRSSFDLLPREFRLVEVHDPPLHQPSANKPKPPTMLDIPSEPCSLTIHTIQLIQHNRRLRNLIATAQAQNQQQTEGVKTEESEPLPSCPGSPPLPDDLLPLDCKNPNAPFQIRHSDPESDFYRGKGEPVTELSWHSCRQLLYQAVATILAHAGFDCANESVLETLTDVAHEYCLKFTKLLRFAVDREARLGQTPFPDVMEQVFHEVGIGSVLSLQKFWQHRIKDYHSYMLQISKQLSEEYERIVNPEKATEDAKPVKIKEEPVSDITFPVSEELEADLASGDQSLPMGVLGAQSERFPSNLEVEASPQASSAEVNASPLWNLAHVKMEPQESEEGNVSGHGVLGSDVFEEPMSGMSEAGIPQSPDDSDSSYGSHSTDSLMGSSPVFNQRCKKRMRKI
UniProt O95271: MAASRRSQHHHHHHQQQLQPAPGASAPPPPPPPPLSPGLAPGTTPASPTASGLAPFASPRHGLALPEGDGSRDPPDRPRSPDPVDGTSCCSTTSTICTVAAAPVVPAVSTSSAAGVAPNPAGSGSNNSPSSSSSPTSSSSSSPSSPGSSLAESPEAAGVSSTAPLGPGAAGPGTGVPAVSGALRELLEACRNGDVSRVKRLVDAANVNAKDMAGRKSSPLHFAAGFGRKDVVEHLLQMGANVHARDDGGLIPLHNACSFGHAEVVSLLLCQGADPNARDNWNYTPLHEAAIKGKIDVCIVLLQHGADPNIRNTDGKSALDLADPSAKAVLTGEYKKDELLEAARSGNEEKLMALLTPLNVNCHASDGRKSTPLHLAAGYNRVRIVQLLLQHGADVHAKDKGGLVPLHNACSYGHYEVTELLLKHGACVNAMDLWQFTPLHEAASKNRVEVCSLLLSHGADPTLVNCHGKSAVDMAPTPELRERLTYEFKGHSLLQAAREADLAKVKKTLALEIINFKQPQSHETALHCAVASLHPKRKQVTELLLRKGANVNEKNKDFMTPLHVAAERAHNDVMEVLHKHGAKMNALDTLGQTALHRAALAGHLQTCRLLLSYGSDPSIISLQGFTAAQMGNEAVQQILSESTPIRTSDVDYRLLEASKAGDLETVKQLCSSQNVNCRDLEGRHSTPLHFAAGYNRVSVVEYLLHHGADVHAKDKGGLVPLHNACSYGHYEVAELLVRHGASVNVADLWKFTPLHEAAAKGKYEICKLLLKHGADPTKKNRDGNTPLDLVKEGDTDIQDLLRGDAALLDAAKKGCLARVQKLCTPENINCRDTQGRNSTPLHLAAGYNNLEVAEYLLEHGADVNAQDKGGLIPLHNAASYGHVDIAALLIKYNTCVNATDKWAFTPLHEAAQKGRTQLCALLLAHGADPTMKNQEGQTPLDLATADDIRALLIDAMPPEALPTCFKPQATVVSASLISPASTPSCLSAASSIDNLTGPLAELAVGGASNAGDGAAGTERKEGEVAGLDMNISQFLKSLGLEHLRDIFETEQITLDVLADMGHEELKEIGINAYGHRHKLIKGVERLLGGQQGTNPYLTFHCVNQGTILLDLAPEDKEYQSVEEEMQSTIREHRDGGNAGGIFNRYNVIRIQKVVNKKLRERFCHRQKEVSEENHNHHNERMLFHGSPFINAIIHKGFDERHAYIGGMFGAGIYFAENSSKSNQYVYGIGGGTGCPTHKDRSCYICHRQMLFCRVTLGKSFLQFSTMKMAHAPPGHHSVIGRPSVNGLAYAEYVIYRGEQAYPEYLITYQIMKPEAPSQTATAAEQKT
UniProt O95935: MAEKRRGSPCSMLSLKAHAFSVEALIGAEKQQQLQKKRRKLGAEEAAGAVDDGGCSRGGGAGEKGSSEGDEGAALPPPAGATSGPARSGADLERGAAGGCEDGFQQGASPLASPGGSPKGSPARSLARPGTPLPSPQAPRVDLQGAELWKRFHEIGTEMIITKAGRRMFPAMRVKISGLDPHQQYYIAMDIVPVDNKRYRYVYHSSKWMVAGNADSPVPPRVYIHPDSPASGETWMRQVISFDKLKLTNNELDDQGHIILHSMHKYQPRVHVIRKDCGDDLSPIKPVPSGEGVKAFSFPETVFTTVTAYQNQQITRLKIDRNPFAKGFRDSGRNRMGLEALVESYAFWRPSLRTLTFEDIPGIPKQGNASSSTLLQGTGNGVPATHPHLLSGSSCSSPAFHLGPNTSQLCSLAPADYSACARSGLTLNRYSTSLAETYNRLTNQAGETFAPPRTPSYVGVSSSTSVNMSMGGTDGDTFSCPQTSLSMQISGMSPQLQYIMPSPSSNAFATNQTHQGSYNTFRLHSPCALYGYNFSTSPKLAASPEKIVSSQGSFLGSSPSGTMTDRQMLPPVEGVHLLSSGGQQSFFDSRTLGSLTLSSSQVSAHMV
UniProt O75665: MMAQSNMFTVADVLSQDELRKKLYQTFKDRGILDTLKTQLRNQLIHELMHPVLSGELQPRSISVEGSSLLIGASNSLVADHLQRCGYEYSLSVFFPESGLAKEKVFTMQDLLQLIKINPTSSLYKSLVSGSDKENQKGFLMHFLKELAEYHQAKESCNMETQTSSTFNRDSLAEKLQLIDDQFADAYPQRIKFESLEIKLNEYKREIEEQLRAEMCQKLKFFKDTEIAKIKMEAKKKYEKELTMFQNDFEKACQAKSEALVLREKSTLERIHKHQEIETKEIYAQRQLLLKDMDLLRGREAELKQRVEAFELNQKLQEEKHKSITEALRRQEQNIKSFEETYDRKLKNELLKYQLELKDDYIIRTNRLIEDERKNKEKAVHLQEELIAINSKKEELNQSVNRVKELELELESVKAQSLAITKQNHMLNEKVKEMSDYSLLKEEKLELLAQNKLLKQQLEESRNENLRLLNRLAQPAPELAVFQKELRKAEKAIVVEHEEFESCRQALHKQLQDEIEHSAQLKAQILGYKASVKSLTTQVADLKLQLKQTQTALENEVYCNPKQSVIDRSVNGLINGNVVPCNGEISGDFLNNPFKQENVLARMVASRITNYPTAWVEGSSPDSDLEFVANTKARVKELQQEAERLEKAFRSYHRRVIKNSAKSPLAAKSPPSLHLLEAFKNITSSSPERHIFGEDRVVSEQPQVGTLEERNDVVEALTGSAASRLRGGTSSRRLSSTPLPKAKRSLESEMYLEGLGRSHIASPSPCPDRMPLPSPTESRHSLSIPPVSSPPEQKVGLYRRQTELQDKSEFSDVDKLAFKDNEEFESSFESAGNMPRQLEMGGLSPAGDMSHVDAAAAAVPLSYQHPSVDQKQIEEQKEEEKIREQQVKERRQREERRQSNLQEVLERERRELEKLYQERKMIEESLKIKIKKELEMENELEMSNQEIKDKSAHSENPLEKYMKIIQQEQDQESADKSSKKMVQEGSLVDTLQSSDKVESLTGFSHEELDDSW
UniProt O95453: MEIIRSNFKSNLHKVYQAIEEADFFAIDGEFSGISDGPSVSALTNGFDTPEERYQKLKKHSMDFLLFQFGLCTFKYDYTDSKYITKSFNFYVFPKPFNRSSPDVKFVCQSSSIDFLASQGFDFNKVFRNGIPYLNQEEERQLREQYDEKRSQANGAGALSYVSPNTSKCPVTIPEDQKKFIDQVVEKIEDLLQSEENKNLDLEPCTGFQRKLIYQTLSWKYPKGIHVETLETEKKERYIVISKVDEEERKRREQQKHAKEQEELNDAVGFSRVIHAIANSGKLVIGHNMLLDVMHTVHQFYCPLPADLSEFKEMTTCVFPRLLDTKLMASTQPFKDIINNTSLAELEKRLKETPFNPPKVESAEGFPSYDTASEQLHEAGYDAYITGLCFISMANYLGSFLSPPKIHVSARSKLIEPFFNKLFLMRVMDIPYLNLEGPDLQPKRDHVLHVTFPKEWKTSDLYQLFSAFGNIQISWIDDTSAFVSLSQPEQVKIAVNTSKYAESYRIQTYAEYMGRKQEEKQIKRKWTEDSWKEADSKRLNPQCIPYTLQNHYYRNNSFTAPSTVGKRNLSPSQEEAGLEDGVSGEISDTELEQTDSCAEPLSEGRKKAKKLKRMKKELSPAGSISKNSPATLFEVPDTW
UniProt O96006: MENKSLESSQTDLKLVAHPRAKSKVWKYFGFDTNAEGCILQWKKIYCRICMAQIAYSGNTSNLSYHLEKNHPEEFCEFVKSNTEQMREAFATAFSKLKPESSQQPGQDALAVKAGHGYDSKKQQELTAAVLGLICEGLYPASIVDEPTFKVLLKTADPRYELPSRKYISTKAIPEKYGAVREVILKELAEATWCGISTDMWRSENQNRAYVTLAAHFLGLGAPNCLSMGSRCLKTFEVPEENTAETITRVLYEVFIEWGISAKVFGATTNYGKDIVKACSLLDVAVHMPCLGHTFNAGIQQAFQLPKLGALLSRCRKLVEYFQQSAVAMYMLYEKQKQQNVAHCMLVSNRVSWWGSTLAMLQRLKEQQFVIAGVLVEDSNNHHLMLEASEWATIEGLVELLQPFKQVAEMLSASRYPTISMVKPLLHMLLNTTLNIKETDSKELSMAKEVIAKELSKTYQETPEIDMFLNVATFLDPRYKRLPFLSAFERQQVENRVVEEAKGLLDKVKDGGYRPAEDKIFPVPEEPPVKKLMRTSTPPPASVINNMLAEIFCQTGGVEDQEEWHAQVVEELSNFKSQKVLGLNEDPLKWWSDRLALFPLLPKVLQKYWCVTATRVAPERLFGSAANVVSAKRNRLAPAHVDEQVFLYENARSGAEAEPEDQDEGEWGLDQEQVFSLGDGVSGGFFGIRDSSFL
UniProt O75391: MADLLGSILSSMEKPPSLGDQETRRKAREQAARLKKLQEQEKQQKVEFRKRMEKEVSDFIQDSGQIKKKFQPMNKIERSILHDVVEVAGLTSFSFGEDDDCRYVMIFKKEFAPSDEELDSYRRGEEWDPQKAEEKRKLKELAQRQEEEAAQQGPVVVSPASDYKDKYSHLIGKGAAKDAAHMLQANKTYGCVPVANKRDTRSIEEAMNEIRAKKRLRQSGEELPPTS

compound: CN[C@@H]1C[C@H]2O[C@@](C)([C@@H]1OC)n1c3ccccc3c3c4c(c5c6ccccc6n2c5c31)C(=O)NC4 [staurosporine]; assay: log2 fold change of tryptic peptide abundance, ligand vs vehicle (limited proteolysis) (log2 ratio); higher = more trypsin-susceptible (destabilized); settings: ligand concentration: 20 uM; sample: K562 cleared lysate; digestion: 4 min, 22 C (HT-PELSA RT4min, Orbitrap Astral)

Row | Target | log2 fold change
1 | UniProt O94892 (peptide sequence: ICPENNEVDDHLQDHLENQR, peptide start residue: 77) | 0.525
2 | SEC24A (peptide sequence: AKLPLGLLLHPFK, peptide start residue: 403) (UniProt O95486) | -1.19
3 | PMPCB (peptide sequence: SNMCWLRD, peptide start residue: 482) (UniProt O75439) | 0.423
4 | PPP1R3D (peptide sequence: VRFADALGLELAQVK, peptide start residue: 103) (UniProt O95685) | -0.339
5 | UniProt O95670 (peptide sequence: ASQSQGIQQLLQAEKR, peptide start residue: 2) | -0.0363
6 | MED24 (peptide sequence: LEEASSWTAIEHSLLK, peptide start residue: 183) (UniProt O75448) | 1.13
7 | ERLIN2 (peptide sequence: LTPEYLQLMK, peptide start residue: 276) (UniProt O94905) | 0.118
8 | BPNT1 (peptide sequence: NYDYYASR, peptide start residue: 290) (UniProt O95861) | 0.305
9 | PSMG1 (peptide sequence: AGTEDEEEEEEGRR, peptide start residue: 16) (UniProt O95456) | -0.107
10 | LYPLA1 (peptide sequence: QFIDKLLPPID, peptide start residue: 220) (UniProt O75608) | -0.267
11 | UniProt O95232 (peptide sequence: WDHESVCK, peptide start residue: 29) | 0.276
12 | SUPT7L (peptide sequence: IVNPEKATEDAKPVK, peptide start residue: 260) (UniProt O94864) | 0.313
13 | FMNL1 (peptide sequence: IVSQKDDVHVCIMCLR, peptide start residue: 220) (UniProt O95466) | -0.286
14 | FARS2 (peptide sequence: TIGGDLVEKVDLIDK, peptide start residue: 387) (UniProt O95363) | 0.129
15 | MTX2 (peptide sequence: RIEQHYFEDR, peptide start residue: 248) (UniProt O75431) | -0.0764
16 | GLS (peptide sequence: VLSPEAVR, peptide start residue: 447) (UniProt O94925) | 0.199
17 | MYO1D (peptide sequence: KCTVSVETR, peptide start residue: 976) (UniProt O94832) | 0.701
18 | CD2BP2 (peptide sequence: KKLVDPVAGSGGPGSR, peptide start residue: 25) (UniProt O95400) | 0.781

Looked up above.
For log2 fold change, PSMG1 (peptide sequence: AGTEDEEEEEEGRR, peptide start residue: 16) (UniProt O95456) reads -0.107
For log2 fold change, FMNL1 (peptide sequence: IVSQKDDVHVCIMCLR, peptide start residue: 220) (UniProt O95466) reads -0.286

Additional entries

Row | Target | log2 fold change
19 | TNKS (peptide sequence: ELLEACR, peptide start residue: 185) (UniProt O95271) | -0.227
20 | UniProt O95935 (peptide sequence: YSTSLAETYNR, peptide start residue: 430) | 0.0853
21 | CRTAP (peptide sequence: DELMPLESAYR, peptide start residue: 39) (UniProt O75718) | 0.137
22 | BAG4 (peptide sequence: WIYPQQDCQTEAPPLR, peptide start residue: 186) (UniProt O95429) | -0.415
23 | ATG7 (peptide sequence: IFPGVNAR, peptide start residue: 424) (UniProt O95352) | 0.356
24 | UniProt O95759 (peptide sequence: DRDSLVEALLAR, peptide start residue: 379) | 0.135
25 | SYF2 (peptide sequence: RRPYNDDADIDYINER, peptide start residue: 199) (UniProt O95926) | 0.265
26 | ZBTB11 (peptide sequence: DLIEAAHLGPGGTHHTR, peptide start residue: 73) (UniProt O95625) | 0.376
27 | ERAL1 (peptide sequence: STLSNQLLGR, peptide start residue: 127) (UniProt O75616) | 0.146
28 | UBOX5 (peptide sequence: VIDQSTLEK, peptide start residue: 283) (UniProt O94941) | 0.267
29 | ZFYVE9 (peptide sequence: VFCASCCSLK, peptide start residue: 727) (UniProt O95405) | 0.491
30 | NME6 (peptide sequence: LVEFMASGPIR, peptide start residue: 72) (UniProt O75414) | 0.567
31 | OFD1 (peptide sequence: QSNLQEVLER, peptide start residue: 898) (UniProt O75665) | -0.19
32 | PARN (peptide sequence: YIVISKVDEEERK, peptide start residue: 238) (UniProt O95453) | 0.335
33 | ZBED1 (peptide sequence: SLESSQTDLK, peptide start residue: 5) (UniProt O96006) | -0.154
34 | PAPSS2 (peptide sequence: RGQVVGTR, peptide start residue: 40) (UniProt O95340) | -0.173
35 | MOCS2 (peptide sequence: EIYEESSTWK, peptide start residue: 168) (UniProt O96007) | -0.0993
36 | SPAG7 (peptide sequence: MEKEVSDFIQDSGQIK, peptide start residue: 52) (UniProt O75391) | 0.659
